Measurements taken from PubChem BioAssay AID2685 (National Center for Advancing Translational Sciences (NCATS), 2010).
This is one part of the list. These are further read-outs of the screen, such as a control signal, another cell line or another target. No call is given for them. The list favours compounds with an active or inconclusive main result. Words in brackets tell the shape of the fitted curve; partial curves, single points and poor fits give uncertain potencies.

Assay: qHTS Assay for Lipid Storage Modulators in Drosophila S3 Cells;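 for cell number change: cells counted by Cell Tracker Red CMTPX staining in the red channel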
Settings: BODIPY lipid droplet fluorescence, 18-24 h; for cell number change: measured here: cell count max response, cells fed with added oleic acid
Summary of the method: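 Laser-scanning cytometry quantifies lipid droplet accumulation (500–530 nm total intensity; droplet/cell object ratio) in oleic acid-fed (400 uM added) Drosophila S3 cells treated with a concentration series. 20 uM Triacsin C defined 100% inhibition.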

[1] = measured here: lipid fluorescence (Fed channel) AC50, cells fed with added oleic acid
[2] = measured here: cell number channel AC50, cells fed with added oleic acid

Row | SMILES | cell number change | AC50 [1] | AC50 [2]
1 | CC1(C)N(O)CC(c2cccs2)=[N+]1[O-] | -12.8% | 0.411 µM [falling, full curve, poor fit] | –
2 | COc1ccc2cc[nH]c2c1 | 17% | 0.651 µM [falling, full curve, poor fit] | –
3 | COc1cc(C(=O)OCC(=O)Nc2c(F)c(F)c(F)c(F)c2F)cc(OC)c1OC | -8.96% | – | –
4 | COc1ccc(OC)c(NC(=O)CN(c2ccc(C)cc2)S(=O)(=O)c2c(C)n[nH]c2C)c1 | 16.1% | 6.51 µM [falling, single point] | –
5 | CCOc1ccc(NC(=O)CSc2nnc(C(C)C)n2CC)cc1 | 2.67% | 0.092 µM [falling, full curve, poor fit] | –
6 | Cc1ccc([N+](=O)[O-])cc1NC(=S)NC(=O)c1c(Cl)cnn1C | 34.8% | 29.1 µM [rising, single point] | 29.1 µM [rising, single point]
7 | CC(Oc1ccc(-c2ccccc2)c(F)c1)c1ccn(S(=O)(=O)c2ccc(Cl)cc2)n1 (stereo not given) | 18% | 18.4 µM [rising, partial curve] | –
8 | Cc1ccc(C(=O)CC(=O)c2ccccc2)cc1 | 7.25% | – | –
9 | Cc1cc(=O)nc2c3ccccc3n(C(C)C(=O)Nc3cc(F)ccc3F)n12 (stereo not given) | – | 1.84 µM [rising, partial curve] | –
10 | C=CCn1c(SCC(=O)Nc2ccc(F)cc2)nc2cc(C(=O)O)ccc2c1=O | -3.7% | – | –
11 | O=C(Nc1ccccc1C(=O)NCC1CCCO1)c1ccc(Cl)cc1 (stereo not given) | 20.1% | 1.26 µM [rising, full curve] | –
12 | O=C(C1=C(O)C(=O)N(CC2CCCO2)C1c1ccccc1[N+](=O)[O-])c1ccco1 (stereo not given) | – | 3.16 µM [falling, single point] | –
13 | NCCc1ccn[nH]1 | -27.4% | 20.6 µM [falling, single point] | –
14 | CCOc1ccc(CN(C)C(=O)c2cccnc2OCC)cc1OC | 26.3% | 14.6 µM [rising, partial curve] | –
15 | CCN1CCN(CC(=O)Nc2cc(C(F)(F)F)ccc2OCCOC)CC1 | -16.1% | – | –
16 | COc1ccc(NC(=O)CN(C)CC(=O)N(C)C2(C#N)CCC(C)CC2)cc1 (stereo not given) | -8.53% | – | –
17 | COc1ccc(Nc2nc(N)nc(CSc3nccn3C)n2)cc1 | 4.06% | – | 3.66 µM [rising, partial curve, poor fit]
18 | O=S(=O)(c1cccc2cccc(Cl)c12)N1CCCC1 | 104% | – | –
19 | CCc1ccc(-c2nnn(CC(=O)N(C3CCCC3)C3CCS(=O)(=O)C3)n2)cc1 (stereo not given) | 44.2% | 13 µM [rising, partial curve] | 32.6 µM [rising, single point]
20 | CSCCC(NC(=O)c1ccco1)C(=O)N1CCN(C(c2ccccc2)c2ccccc2)CC1 (stereo not given) | 97% | – | 11.6 µM [rising, partial curve]

3 entries from above, in CSV form:
Row,SMILES,cell number change,AC50 [1],AC50 [2]
10,C=CCn1c(SCC(=O)Nc2ccc(F)cc2)nc2cc(C(=O)O)ccc2c1=O,-3.7%,–,–
11,O=C(Nc1ccccc1C(=O)NCC1CCCO1)c1ccc(Cl)cc1 (stereo not given),20.1%,"1.26 µM [rising, full curve]",–
12,O=C(C1=C(O)C(=O)N(CC2CCCO2)C1c1ccccc1[N+](=O)[O-])c1ccco1 (stereo not given),–,"3.16 µM [falling, single point]",–

Following part

Row | SMILES | cell number change | AC50 [1] | AC50 [2]
21 | COc1cc(C2C=C(C34CC5CC(CC(C5)C3)C4)NC(=S)N2)cc(OC)c1OC (stereo not given) | – | – | 1.64 µM [falling, single point]
22 | CCOc1ccc(NC(=O)CN(C)C(=O)Cc2c(C)nc3ccccc3c2C)cc1OCC | -1.28% | 0.411 µM [rising, partial curve, poor fit] | –
23 | C=C(C)Cn1c(N2CCC(Cc3ccccc3)CC2)nc2c1c(=O)[nH]c(=O)n2C | -31.1% | 29.1 µM [falling, single point] | 29.1 µM [falling, single point]
24 | C=CCN(CC=C)S(=O)(=O)c1ccc(C(=O)Nc2sc3c(c2C(N)=O)CCCCC3)cc1 | -23.2% | 20.6 µM [falling, single point] | –
25 | CCOc1ncccc1C(=O)N(CC)CC(=O)NCc1ccc(Cl)cc1 | 25.2% | 0.13 µM [falling, full curve, poor fit] | –
26 | O=C(Nc1cccnc1N1CCOCC1)c1cc2ccccc2oc1=O | -10.4% | 6.51 µM [rising, partial curve, poor fit] | –
27 | CCOC(=O)N=Nc1c(O)n(CC)c2ccccc12 | -17% | 29.1 µM [rising, single point] | –
28 | Cn1cc(C(=O)NS(=O)(=O)Nc2ccc(Br)cc2)c2ccccc21 | -19.8% | 18.4 µM [rising, partial curve] | –
29 | NC(=O)Nc1ccccc1C(=O)Nc1ccc2ccccc2c1 | 2.64% | – | –
30 | O=C(Nc1ccc(-c2csc(Nc3cccc(C(F)(F)F)c3)n2)cc1)c1cccc(C(F)(F)F)c1 | -31.4% | 29.1 µM [falling, single point] | 16.4 µM [falling, single point]
31 | Cn1nnnc1Sc1ccc([N+](=O)[O-])cc1Cl | -22.7% | – | –
32 | CCCC(NCC(O)COc1ccc(-c2ccccc2)cc1)c1ccccc1 (stereo not given) | -44% | 29.1 µM [falling, single point] | 32.6 µM [falling, single point]
33 | Cc1ccc(C)c(NC(=S)NNC(=O)c2csc(C)c2C)c1 | -63.2% | 2.91 µM [rising, single point] | 29.1 µM [falling, single point]
34 | CC(=O)Nc1cccc(NC(=O)CSc2nnc(NC(=O)C3CC3)s2)c1 | 4.74% | 0.00461 µM [falling, full curve, poor fit] | –
35 | CCCN(CC(=O)Nc1ccccc1OC)C(=O)c1cc(-c2cccs2)nn1-c1ccccc1 | 35.5% | 0.651 µM [rising, full curve] | 0.461 µM [rising, full curve]
36 | Cc1ccccc1CC(=O)N1CCCC(CCC(=O)N2CCN(c3ccccn3)CC2)C1 (stereo not given) | -28.7% | 14.6 µM [falling, partial curve] | –
37 | COC(=O)c1c(C)[nH]c(C)c1-c1ccc(C)cc1 | 26.6% | 2.91 µM [rising, partial curve] | 1.84 µM [rising, partial curve, poor fit]
38 | NNC(=O)c1cncc(Br)c1 | 5.12% | – | –
39 | COc1cccc(COC(=O)C2CC(=O)N(Cc3ccc(C)cc3)C2)c1OC (stereo not given) | 1.5% | – | –
40 | O=C(Nc1cccc(F)c1)C1CCCN(S(=O)(=O)c2ccc(-n3cnnn3)cc2)C1 (stereo not given) | 11.5% | 6.51 µM [rising, single point] | –
